In article PMC9675736:
These are yes or no findings as the source states them, for the method shown. Binding seen in cells or lysates may run through a third protein. Some binding calls cover weakened binding; strength is not graded here.

Chains of the proteins cited; added tags and fusions are not shown.
UniProt P62136: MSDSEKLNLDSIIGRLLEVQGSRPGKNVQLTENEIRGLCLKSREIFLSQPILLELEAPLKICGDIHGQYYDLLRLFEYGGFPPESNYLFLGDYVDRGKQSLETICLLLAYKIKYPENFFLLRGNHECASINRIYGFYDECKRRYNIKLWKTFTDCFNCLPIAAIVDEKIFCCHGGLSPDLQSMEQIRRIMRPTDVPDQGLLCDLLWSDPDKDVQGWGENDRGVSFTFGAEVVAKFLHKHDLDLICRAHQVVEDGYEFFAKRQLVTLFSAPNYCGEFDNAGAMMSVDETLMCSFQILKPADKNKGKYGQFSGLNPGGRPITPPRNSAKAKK
UniProt P62137: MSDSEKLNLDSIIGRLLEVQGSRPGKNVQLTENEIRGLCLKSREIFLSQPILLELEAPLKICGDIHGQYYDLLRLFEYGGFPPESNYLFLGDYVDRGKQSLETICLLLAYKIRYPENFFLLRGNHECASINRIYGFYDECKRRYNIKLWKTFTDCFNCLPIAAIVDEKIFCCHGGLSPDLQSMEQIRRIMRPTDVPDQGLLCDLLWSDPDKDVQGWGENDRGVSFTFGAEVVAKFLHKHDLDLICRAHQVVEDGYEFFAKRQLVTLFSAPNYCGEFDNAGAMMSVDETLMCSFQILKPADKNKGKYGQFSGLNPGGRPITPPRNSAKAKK

Legend:
[1] = biological target: T1, platelet endothelial aggregation receptor 1 (PEAR1), human (human (endogenous in cultured human pulmonary fibroblasts)) (UniProt Q5VY43); assay: co-IP; lysates of cultured human or mouse pulmonary fibroblasts incubated overnight at 4 °C with anti-human PEAR1 mAbs LF2 and LF3, anti-mouse PEAR1 mAb LF1 or anti-PP1 antibody; mouse IgG as negative control; protein A/G agarose beads 3 h, washed 3 times with PBS; Western blot
T1 sequence: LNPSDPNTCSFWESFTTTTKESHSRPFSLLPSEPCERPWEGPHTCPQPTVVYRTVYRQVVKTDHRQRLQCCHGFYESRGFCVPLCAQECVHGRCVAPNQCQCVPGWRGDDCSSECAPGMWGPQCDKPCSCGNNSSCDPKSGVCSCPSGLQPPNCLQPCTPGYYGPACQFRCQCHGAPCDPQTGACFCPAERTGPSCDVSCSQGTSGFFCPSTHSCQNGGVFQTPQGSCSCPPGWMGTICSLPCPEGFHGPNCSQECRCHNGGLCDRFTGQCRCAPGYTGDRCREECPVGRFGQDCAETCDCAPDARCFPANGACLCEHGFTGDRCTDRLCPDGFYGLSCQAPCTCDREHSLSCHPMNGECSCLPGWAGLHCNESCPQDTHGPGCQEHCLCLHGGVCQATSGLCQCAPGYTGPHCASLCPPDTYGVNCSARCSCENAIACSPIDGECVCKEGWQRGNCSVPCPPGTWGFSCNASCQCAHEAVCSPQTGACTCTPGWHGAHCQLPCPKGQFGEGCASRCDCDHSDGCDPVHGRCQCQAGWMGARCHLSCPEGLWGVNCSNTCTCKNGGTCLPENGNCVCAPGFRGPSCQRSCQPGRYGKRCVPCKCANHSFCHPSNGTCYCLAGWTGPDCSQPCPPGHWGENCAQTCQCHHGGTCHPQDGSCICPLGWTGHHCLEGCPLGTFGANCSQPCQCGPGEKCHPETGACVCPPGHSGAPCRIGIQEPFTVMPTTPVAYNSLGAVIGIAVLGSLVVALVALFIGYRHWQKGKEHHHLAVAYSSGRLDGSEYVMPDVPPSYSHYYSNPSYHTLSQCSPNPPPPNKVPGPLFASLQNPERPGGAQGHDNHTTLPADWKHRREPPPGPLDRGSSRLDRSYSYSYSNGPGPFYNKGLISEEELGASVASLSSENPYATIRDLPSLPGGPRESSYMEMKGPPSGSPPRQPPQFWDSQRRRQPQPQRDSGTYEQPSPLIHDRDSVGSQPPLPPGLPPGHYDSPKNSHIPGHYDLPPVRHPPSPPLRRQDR

[2] = biological target: T2, platelet endothelial aggregation receptor 1 (PEAR1), mouse (mouse (endogenous in cultured mouse pulmonary fibroblasts)) (UniProt Q8VIK5); assay: as above
T2 sequence: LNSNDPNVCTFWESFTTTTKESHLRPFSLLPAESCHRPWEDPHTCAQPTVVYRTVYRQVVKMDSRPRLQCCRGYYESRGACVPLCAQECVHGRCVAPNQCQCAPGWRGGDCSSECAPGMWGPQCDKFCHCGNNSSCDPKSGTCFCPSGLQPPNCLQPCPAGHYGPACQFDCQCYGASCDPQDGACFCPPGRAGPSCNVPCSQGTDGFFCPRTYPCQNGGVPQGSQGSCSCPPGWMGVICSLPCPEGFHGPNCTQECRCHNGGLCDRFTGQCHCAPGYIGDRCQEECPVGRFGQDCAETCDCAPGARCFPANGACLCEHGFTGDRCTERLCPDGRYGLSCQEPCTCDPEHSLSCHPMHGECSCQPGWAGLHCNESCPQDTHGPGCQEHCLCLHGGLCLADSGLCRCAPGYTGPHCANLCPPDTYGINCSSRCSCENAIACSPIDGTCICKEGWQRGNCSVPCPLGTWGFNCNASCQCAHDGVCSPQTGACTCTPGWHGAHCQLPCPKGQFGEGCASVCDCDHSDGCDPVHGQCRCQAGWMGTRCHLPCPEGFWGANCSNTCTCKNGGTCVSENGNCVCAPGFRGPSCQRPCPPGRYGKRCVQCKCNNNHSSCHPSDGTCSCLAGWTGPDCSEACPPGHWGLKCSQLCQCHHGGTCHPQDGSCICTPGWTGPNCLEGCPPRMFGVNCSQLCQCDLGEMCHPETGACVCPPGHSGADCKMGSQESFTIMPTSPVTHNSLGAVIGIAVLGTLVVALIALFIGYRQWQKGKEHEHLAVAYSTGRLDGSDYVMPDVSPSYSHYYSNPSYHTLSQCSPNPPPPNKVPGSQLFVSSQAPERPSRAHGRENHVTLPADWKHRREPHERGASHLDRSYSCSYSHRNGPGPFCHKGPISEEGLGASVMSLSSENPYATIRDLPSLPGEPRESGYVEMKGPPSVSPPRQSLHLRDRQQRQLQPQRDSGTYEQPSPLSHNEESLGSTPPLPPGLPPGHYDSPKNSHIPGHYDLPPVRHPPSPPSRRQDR

Row | Substance | binding [1] | binding [2]
1 | protein phosphatase 1 catalytic subunit alpha (PP1α), human (from UniProt P62136 1-330) (enzyme) | binds | –
2 | protein phosphatase 1 catalytic subunit alpha (PP1α), mouse (from UniProt P62137 1-330) (enzyme) | – | binds
